Measurements published in publication PMC6232869.
Results are given in words; binding and its absence hold for the method and conditions named. Some entries that bind do so weakly or less than the wild type.

Amino acid sequences for entries named in this document (tags omitted). Residues count along the entry.
UniProt P20029, residues 20-655: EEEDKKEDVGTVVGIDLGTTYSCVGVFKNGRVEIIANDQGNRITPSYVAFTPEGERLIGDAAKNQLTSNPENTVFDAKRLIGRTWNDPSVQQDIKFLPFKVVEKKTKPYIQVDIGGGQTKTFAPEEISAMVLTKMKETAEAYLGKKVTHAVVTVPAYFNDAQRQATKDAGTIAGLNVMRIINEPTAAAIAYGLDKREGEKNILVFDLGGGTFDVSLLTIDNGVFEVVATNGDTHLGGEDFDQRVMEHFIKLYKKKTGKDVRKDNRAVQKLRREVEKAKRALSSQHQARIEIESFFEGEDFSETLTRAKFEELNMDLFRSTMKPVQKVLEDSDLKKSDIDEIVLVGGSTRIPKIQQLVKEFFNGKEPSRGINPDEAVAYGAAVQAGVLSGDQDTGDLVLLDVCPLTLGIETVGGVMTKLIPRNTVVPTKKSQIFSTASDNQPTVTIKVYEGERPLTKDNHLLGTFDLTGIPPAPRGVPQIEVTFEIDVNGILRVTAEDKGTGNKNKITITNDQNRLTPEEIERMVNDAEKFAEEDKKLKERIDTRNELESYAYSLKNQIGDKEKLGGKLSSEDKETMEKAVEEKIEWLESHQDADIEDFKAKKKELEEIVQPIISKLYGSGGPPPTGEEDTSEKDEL

Target: 78 kDa glucose regulated protein (GRP78) (mouse (endogenous in cultured spinal cord astrocytes)) (UniProt P20029)
Assay: DARTS (drug affinity responsive target stability); astrocyte cell lysate (10 ug protein) incubated with 0.1, 1 or 10 ug/ml recombinant NLK or vehicle for 30 min at room temperature; then thermolysin (1:10) in 50 mM Tris-HCl pH 8.0, 50 mM NaCl, 10 mM CaCl2 for 30 min at 37 C; SDS-PAGE with silver stain, band identified by nano LC-MS/MS, western blot for GRP78; only the binder purified

recombinant neuroleukin (NLK) (from UniProt P06744 1-558) (ligand)
binding: binds
